Measurements reported in PubChem BioAssay AID1671195 (Yale University, 2021).
This is a random part of about 22,000 deposited reagents. Over the whole deposit, about 1,510 (6.9%) got an active call. 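Active includes knockdowns raising or lowering LDL uptake; positive z-scores mean more uptake, negative mean less.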

Aim: 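Knockdowns that increase or decrease uptake of fluorescent LDL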 (primary screen)
System: human Huh7 hepatoma cells
Knock-down reagent: siRNA pool against human genes, 18 nM
Duration: about 2 to 2.5 days of knockdown, then 8 h LDL uptake
Conditions: DiI-labelled LDL at 30 µg/ml for 8 h, in lipoprotein-deficient serum medium
Measured: 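Per-cell DiI-LDL intensity by automated imaging; well means scaled to the plate median and given as a robust z-score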
Direction: robust z-score: higher = more LDL uptake after knockdown
Rule for the call: 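Active when two or more replicates show a robust z-score above 2 or below -2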

The first 2 records, ahead of the listing:
FAM43A (GeneID 131583)
- robust z-score, replicate 1: 1.5
- robust z-score, replicate 2: 0.461
- robust z-score, replicate 3: 2.02
- outcome: inactive

SLC22A16 (GeneID 85413)
- robust z-score, replicate 1: 0.462
- robust z-score, replicate 2: 0.569
- robust z-score, replicate 3: 0.393
- outcome: inactive

Main list, repeating the preview:
FAM43A (GeneID 131583)
- robust z-score, replicate 1: 1.5
- robust z-score, replicate 2: 0.461
- robust z-score, replicate 3: 2.02
- outcome: inactive

SLC22A16 (GeneID 85413)
- robust z-score, replicate 1: 0.462
- robust z-score, replicate 2: 0.569
- robust z-score, replicate 3: 0.393
- outcome: inactive

ZNF804A (GeneID 91752)
- robust z-score, replicate 1: -0.675
- robust z-score, replicate 2: -0.928
- robust z-score, replicate 3: -0.856
- outcome: inactive

PPP6R2 (GeneID 9701)
- robust z-score, replicate 1: 0.927
- robust z-score, replicate 2: -0.36
- robust z-score, replicate 3: -0.878
- outcome: inactive

PLEKHG4 (GeneID 25894)
- robust z-score, replicate 1: 0.971
- robust z-score, replicate 2: 1.38
- robust z-score, replicate 3: 0.927
- outcome: inactive

IL12A (GeneID 3592)
- robust z-score, replicate 1: -0.45
- robust z-score, replicate 2: -0.349
- robust z-score, replicate 3: -0.971
- outcome: inactive

HOXA5 (GeneID 3202)
- robust z-score, replicate 1: -0.969
- robust z-score, replicate 2: -0.111
- robust z-score, replicate 3: -0.0672
- outcome: inactive

ZNF749 (GeneID 388567)
- robust z-score, replicate 1: -0.553
- robust z-score, replicate 2: -0.682
- robust z-score, replicate 3: -0.666
- outcome: inactive

ME1 (GeneID 4199)
- robust z-score, replicate 1: 0.62
- robust z-score, replicate 2: 1.29
- robust z-score, replicate 3: 0.542
- outcome: inactive

LOC441385 (retired record) (GeneID 441385)
- robust z-score, replicate 1: 0.558
- robust z-score, replicate 2: 0.805
- robust z-score, replicate 3: 0.776
- outcome: inactive

DNAJC12 (GeneID 56521)
- robust z-score, replicate 1: 0.943
- robust z-score, replicate 2: 0.894
- robust z-score, replicate 3: 1.38
- outcome: inactive

SERPINB3 (GeneID 6317)
- robust z-score, replicate 1: 1.76
- robust z-score, replicate 2: -0.0791
- robust z-score, replicate 3: 1.24
- outcome: inactive

LOC441510 (retired record) (GeneID 441510)
- robust z-score, replicate 1: 0.105
- robust z-score, replicate 2: -0.62
- robust z-score, replicate 3: -0.481
- outcome: inactive

NKX6-3 (GeneID 157848)
- robust z-score, replicate 1: -0.12
- robust z-score, replicate 2: 0.369
- robust z-score, replicate 3: -0.273
- outcome: inactive

PPEF1 (GeneID 5475)
- robust z-score, replicate 1: 0.0794
- robust z-score, replicate 2: 1.56
- robust z-score, replicate 3: -0.741
- outcome: inactive

PRUNE1 (GeneID 58497)
- robust z-score, replicate 1: 2.28
- robust z-score, replicate 2: 1.33
- robust z-score, replicate 3: 1.98
- outcome: active
